# Hit rate of the full screen: of about 330,000 compounds, about 100 (0.03%) were called active. Inconclusive means that the source gave no clear call. Such entries were picked first, then a sample of the others. Calls come from the whole dose curve; as a rule, active = well fitted inhibition curve with a large enough effect; inconclusive = small, poorly fitted or top-dose-only effect; inactive = flat fitted curve, though single readings scatter. Where the call is inconclusive, the potency comes from a doubtful curve fit.
# Test system: Chaperonin Mm-Cpn (Methanococcus maripaludis)
# Assay: Inhibitors of TCP-1 ring complex (TRiC) of Methanococcus maripaludis (MmCpn): qHTS; note: nearly all actives have a fitted effect of over 80% in size;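 for potency: enzyme at 25 nM with ATP substrate at 10 µM during the reaction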
# Conditions: purified Mm-Cpn ATPase, ADP Transcreener TR-FRET
# Description: The eukaryotic chaperonin TRiC (for TCP-1 ring complex) is an essential and conserved chaperone required for the folding and activation of 10-15% of the proteins encoded by the human genome. […] The TRiC complex consist of two stacked 7-9 membered rings, each containing a central cavity. Substrates are folded within the cavity in an ATP-dependent manner. TRiC is a complex of eight different, essential proteins. As each of the genes encoding the eight subunits is essential for cell viability and no protocol has been developed to over-express this enzyme to high levels. That is why several groups studying the TRiC chaperonin have turned to the archaeal homolog of TRiC, Methanococcus maripaludis (Mm-CPN), and have used this enzyme as a model system for the study of the type II chaperonin family. Small molecule inhibitors of the Mm-CPN enzyme would be extremely useful to study the mechanism of chaperonin activity. Importantly, TRiC and Mm-CPN both require ATP hydrolysis for function. Furthermore, the ATP binding sites are highly conserved among these type II chaperonins. This provides us with an easy, well tested and straightforward assay to identify inhibitors of chaperonin activity. The Mm-CPN assay was developed in 1536-well plate format using the HTRF Transcreener ADP assay kit (Cisbio, Bedford, MA). This assay applied the time resolved fluorescence resonance energy transfer (TR-FRET) principle. ATP in the presence of Mm-CPN is converted to ADP + Pi. An antibody labeled with Eu3+-Cryptate specific and bound to ADP labeled with […] (d2) competes with the unlabeled ADP generated by Mm-CPN. The resulting TR-FRET signal is inversely proportional to the concentration of ADP in the sample. In this assay a reduction in TR-FRET signal is observed with ATP turnover. NIH Chemical Genomics Center [NCGC] NIH Molecular Libraries Probe Centers Network [MLPCN] MLPCN Grant: DA030554-01A1 Assay Submitter (PI): Judith Frydman, Stanford University
# Purified Mm-CPN was supplied by the laboratory of Dr. Judith Frydman. Protein samples were stored at -80C as single use aliquots. Protein was thawed in ambient temperature water bath and placed on ice once thawed. Buffer was prepared fresh day of screen. The buffer composition below was used to prepare the working solution of the Mm-CPN protein and ATP substrate. The buffer is comprised of 30 mM TRIS pH 7.4, 100mM KCl, 5mM MgCl2, and 1mM DTT. A final concentration of 25nM Mm-CPN and 10uM ATP per well were used in the screen. Instructions according to the manufacturer were followed for the ADP Transcreener kit. Used 1536 well Greiner white, medium binding (MB), solid bottom plates. Plates were read on the PerkinElmer EnVision plate reader using Excitation = 320 nm and Emission = […], 665 nm. Protocol- 1.Dispense 1.5ul per well of working [Mm-CPN] = 50nM (or 75 ng / well) 2.Spin plate at 1000 rpm for 30 seconds 3.23nl of compound transferred per well 4.Incubate at 37degC for 10 minutes 5.Dispense 1.5ul per well of working [ATP] = 20uM 6.Incubate at 37degC for 30 minutes 7.Dispense 3ul per well of Anti-ADP Cryptate / ADP-d2 mix (prepared as instructed by Cisbio) 8.Incubate at ambient for 30 minutes 9.Read using EnVision
# Potency is the fitted concentration of half-maximal effect.
row,SMILES,Potency
1,O=C(Cn1[nH]c(=O)c2ccccc2c1=O)NC1CCN(Cc2ccccc2)CC1,inactive
2,Cc1c(Cl)cccc1NC(=O)CC1Sc2ccccc2NC1=O (configuration not stated),"inconclusive: 11.2 µM [inhibitor, single point]"
3,CCN1C(=O)c2cccc3cccc1c23,inactive
4,COc1cc(C2NC(=S)NC(C)=C2C(=O)Nc2cc(C)cc(C)c2)ccc1O (configuration not stated),"inconclusive: 89.1 µM [inhibitor, single point]"
5,O=C(NCC(=O)N(Cc1ccccc1)C(C(=O)NCC1CCCO1)c1ccccc1)c1ccco1 (configuration not stated),"inconclusive: 17.8 µM [inhibitor, single point]"
6,O=C1CN(C(=O)c2cc3ccccc3oc2=O)C(c2ccc(F)cc2)c2cc(Br)ccc2N1 (configuration not stated),"inconclusive: 39.8 µM [inhibitor, single point]"
7,COc1cc(-c2csc(CCn3nc(C)cc3C)n2)cc(OC)c1OC,inactive
8,CCc1ccc2[nH]c(=O)c(CN(CCCN3CCOCC3)C(=O)Nc3cccc(Cl)c3)cc2c1,inactive
9,OCCCCC#Cc1c(-c2ccsc2)sc2ccccc12,"inconclusive: 200 µM [inhibitor, partial curve, poor fit]"
10,C/C=C(/C)C(=O)Nc1cccc(C2=NOC3(C2)C[C@H](C(N)=O)N(C(=O)c2ccc(Cl)cc2)C3)c1 (some centres not stated),"inconclusive: 100 µM [inhibitor, partial curve, poor fit]"
11,COc1ccc(-c2nc(N3CCN(C)CC3)sc2-c2ccc(OC)cc2)cc1,"inconclusive: 28.2 µM [inhibitor, single point]"
12,COc1ccc(-c2nnc3sc(-c4ccc(Br)o4)nn23)cc1OC,"inconclusive: 89.1 µM [inhibitor, single point]"
13,COc1ccc(/C=C/c2cc(C(=O)O)c3ccccc3n2)cc1,"inconclusive: 35.5 µM [inhibitor, single point]"
14,Cc1ccc(N2CCN(c3ccc(NC(=O)CCC(=O)O)cc3)CC2)cc1,inactive
15,CCN(Cc1ccccc1)C(=O)c1cc2c(=O)oc3ccc(C)cc3c2s1,"inconclusive: 79.4 µM [inhibitor, single point]"
16,CC(=O)NC(=S)Nc1cccc([N+](=O)[O-])c1,inactive
17,COc1ccc2[nH]c(=O)c(CN(Cc3ccco3)Cc3nnnn3Cc3ccccc3)cc2c1,"inconclusive: 100 µM [inhibitor, single point]"
18,CC1CCC(NC(=O)COC(=O)c2ccc3ncsc3c2)CC1 (configuration not stated),"inconclusive: 89.1 µM [inhibitor, single point]"
19,CCOc1cc(CNc2ccc3c(c2)OCCO3)cc(Br)c1OCC(N)=O,inactive
20,CCOc1cc(C2C(C#N)=C(N)SC(N)=C2C#N)ccc1OCCN1CCOCC1,"inconclusive: 89.1 µM [inhibitor, single point]"
21,Cc1ccccc1C(=O)Nc1ccccc1C(=O)NC1CC1,"inconclusive: 100 µM [inhibitor, single point]"
22,CCCCOC(=O)Nc1ccc(S(=O)(=O)Nc2onc(C)c2C)cc1,inactive
23,CCCCCn1c(=O)[nH]c2cc(C(=O)NCCN3CCC(C)CC3)ccc2c1=O,inactive

row,SMILES,Potency
1,COc1ccc(CCNC(=O)CN(c2cccc([N+](=O)[O-])c2)S(C)(=O)=O)cc1OC,"inconclusive: 100 µM [inhibitor, single point]"
2,COC(=O)c1cc2oc3ccccc3c2n1CC(=O)Nc1ccccc1OC,"inconclusive: 12.6 µM [inhibitor, single point]"
3,CCOC(=O)c1c(C)[nH]c(C(=O)COC(=O)C2=NNC(=O)CC2)c1C,"inconclusive: 100 µM [inhibitor, single point]"
4,COc1cc(/C=C2\SC(=S)N(Nc3ccccc3)C2=O)ccc1O,inactive
5,S=c1[nH]ccn1-c1c(Cl)cccc1Cl,"inconclusive: 20 µM [inhibitor, single point]"
6,O=C(CSc1nccc(=O)[nH]1)c1ccccc1Br,"inconclusive: 22.4 µM [inhibitor, single point]"
7,CCOC(=O)c1c(-c2ccccc2)nc2c(C)cccn12,inactive
8,COc1cc(SSc2cc(OC)cc([N+](=O)[O-])c2N)c(N)c([N+](=O)[O-])c1,inactive
9,COc1cc(S(=O)(=O)NCc2ccncc2)c(OC)cc1C,"inconclusive: 22.4 µM [inhibitor, single point]"
10,CCOC(=O)c1ccc(S(=O)(=O)NNC(=O)c2cccc(N(C)C)c2)cc1,"inconclusive: 89.1 µM [inhibitor, single point]"
11,CN1CCN(c2ccc(NC(=S)NC(=O)c3cccc4c(Br)cccc34)cc2)CC1,inactive
12,COc1ccc(-c2[nH]c(-c3ccc(C)cc3)nc2SCC(=O)Nc2nccs2)cc1,"inconclusive: 25.1 µM [inhibitor, single point]"
13,Cc1cc(C)n2ncc(/C(N)=N/OC(=O)c3ccccc3F)c2n1,"inconclusive: 22.4 µM [inhibitor, single point]"
14,Cc1nc2c(=O)n(C)c(=O)n(C)c2nc1Cl,"inconclusive: 100 µM [inhibitor, single point]"
15,O=C(Oc1ccccc1)c1ccc(COC(=O)c2cnccn2)cc1,"inconclusive: 22.4 µM [inhibitor, single point]"
16,CCN(CC)S(=O)(=O)c1ccc(-c2nnc(SCC(=O)N3c4ccccc4CC3C)o2)cc1 (configuration not stated),"inconclusive: 89.1 µM [inhibitor, single point]"
17,COCC1CCCCN1C(=O)c1ccc2oc(CCCc3ccccc3)nc2c1 (configuration not stated),"inconclusive: 25.1 µM [inhibitor, single point]"
18,Cc1c(-n2c(-c3ccccc3Cl)n[nH]c2=S)c(=O)n(-c2ccccc2)n1C,"inconclusive: 20 µM [inhibitor, single point]"
19,COc1ccc(-c2cnc(SCC(=O)Nc3nc(C(C)(C)C)cs3)n2Cc2ccco2)cc1,"inconclusive: 282 µM [inhibitor, partial curve, poor fit]"
20,CCCCNC(=O)Cc1c(O)c2ccccc2[nH]c1=O,inactive
21,CCn1c(O)c(N=NC(=O)CNC(=O)/C=C/c2ccccc2)c2ccccc21,"inconclusive: 89.1 µM [inhibitor, single point]"
22,CSc1ccccc1OC1CCN(Cc2ccccc2)CC1,inactive
23,Cc1ccccc1C(=O)NNC(=O)c1cccc(Br)c1,"inconclusive: 28.2 µM [inhibitor, single point]"

# No new results follow: entries from further up.
row,SMILES,Potency
16,CCN(CC)S(=O)(=O)c1ccc(-c2nnc(SCC(=O)N3c4ccccc4CC3C)o2)cc1 (configuration not stated),"inconclusive: 89.1 µM [inhibitor, single point]"
17,COCC1CCCCN1C(=O)c1ccc2oc(CCCc3ccccc3)nc2c1 (configuration not stated),"inconclusive: 25.1 µM [inhibitor, single point]"
18,Cc1c(-n2c(-c3ccccc3Cl)n[nH]c2=S)c(=O)n(-c2ccccc2)n1C,"inconclusive: 20 µM [inhibitor, single point]"
19,COc1ccc(-c2cnc(SCC(=O)Nc3nc(C(C)(C)C)cs3)n2Cc2ccco2)cc1,"inconclusive: 282 µM [inhibitor, partial curve, poor fit]"
20,CCCCNC(=O)Cc1c(O)c2ccccc2[nH]c1=O,inactive
21,CCn1c(O)c(N=NC(=O)CNC(=O)/C=C/c2ccccc2)c2ccccc21,"inconclusive: 89.1 µM [inhibitor, single point]"

# Next part

row,SMILES,Potency
1,O=C(NCC(=O)N(c1ccccc1F)C(C(=O)NCC1CCCO1)c1ccccc1)c1ccco1 (configuration not stated),"inconclusive: 22.4 µM [inhibitor, single point]"
2,O=C(CN(Cc1ccc(F)cc1)C(=O)CNS(=O)(=O)c1ccc(Cl)cc1)NCC1CCCO1 (configuration not stated),"inconclusive: 100 µM [inhibitor, single point]"
3,Cc1ccc(S(=O)(=O)N2C(=O)CCC2C(=O)O/N=C(\N)c2ccccc2)cc1 (configuration not stated),"inconclusive: 100 µM [inhibitor, single point]"
4,COc1ccc(Nc2c3c(nc4c(-c5ccccc5)c(C)nn24)CCC3)cc1,"inconclusive: 89.1 µM [inhibitor, single point]"
5,O=C(NC12CC3CC(CC(C3)C1)C2)N1CCN(c2ccccc2)CC1,inactive
6,N#CCc1c(C#N)c(N)nc(N2CCN(S(=O)(=O)c3ccccc3F)CC2)c1C#N,"inconclusive: 100 µM [inhibitor, single point]"
7,N#CC(C(=O)NCc1ccco1)c1nc2ccccc2nc1N1CCOCC1 (configuration not stated),"inconclusive: 56.2 µM [inhibitor, single point]"
8,O=C(Nc1nc(-c2ccccn2)cs1)c1ccc(S(=O)(=O)N2CCCCC2)cc1,inactive
9,Cc1cccc(NC(=O)CSc2nc3c(c(=O)[nH]2)CCCC3)c1C,"inconclusive: 100 µM [inhibitor, single point]"
10,COc1ccc(NC(=O)CC2C(=O)Nc3ccccc3N2CC(=O)N2CCCC2)cc1 (configuration not stated),"inconclusive: 25.1 µM [inhibitor, single point]"
11,COc1ccc(C2C(C(=O)OC3CCCCC3)=C(C)Nc3nnnn32)c(OC)c1OC (configuration not stated),"inconclusive: 20 µM [inhibitor, single point]"
12,COc1ccc(CCN2C(=O)N(c3ccc(OC)cc3)C(=O)C2CC(=O)Nc2ccc(OC)cc2)cc1 (configuration not stated),"inconclusive: 50.1 µM [inhibitor, single point]"
13,Cc1cccn2c(=O)c3cc(C#N)c(=NC(=O)c4ccncc4)n(CCCOC(C)C)c3nc12,"inconclusive: 56.2 µM [inhibitor, partial curve, poor fit]"
14,COc1cc(C(=O)OCC(=O)Nc2ccc(N3CCOCC3)cc2)ccc1OCC(C)C,inactive
15,O=S(=O)(c1ccc2nc(-c3ccccc3)[nH]c2c1)N1CCN(c2ccc(Cl)cc2)CC1,"inconclusive: 200 µM [inhibitor, partial curve, poor fit]"
16,CCn1c(SCC(=O)Nc2nc(-c3ccccc3)cs2)nnc1-c1ccccc1O,inactive
17,Cc1ccccc1-c1n[nH]c(=S)o1,"inconclusive: 316 µM [inhibitor, partial curve, poor fit]"
18,O=C(CCc1nc2sc3c(c2c(=O)[nH]1)CCCC3)NCCOc1ccccc1,"inconclusive: 282 µM [inhibitor, partial curve, poor fit]"
19,Cc1cc2cc(CNC(=O)c3cccc([N+](=O)[O-])c3)ccc2n1C,"inconclusive: 89.1 µM [inhibitor, single point]"
20,Cc1ccc(N2C=Nc3ccc(C)c4nc(C)cc2c34)cc1,"inconclusive: 14.1 µM [inhibitor, single point]"
21,CCOCCn1c(SCc2ccc(C)cc2)nc2c1c(=O)[nH]c(=O)n2C,"inconclusive: 28.2 µM [inhibitor, single point]"

# From PubChem BioAssay AID504842 (National Center for Advancing Translational Sciences (NCATS), 2011)
